Library screening results

Amino acid sequences for entries named in this document (tags omitted).
UniProt E9BF75, entry or part of it: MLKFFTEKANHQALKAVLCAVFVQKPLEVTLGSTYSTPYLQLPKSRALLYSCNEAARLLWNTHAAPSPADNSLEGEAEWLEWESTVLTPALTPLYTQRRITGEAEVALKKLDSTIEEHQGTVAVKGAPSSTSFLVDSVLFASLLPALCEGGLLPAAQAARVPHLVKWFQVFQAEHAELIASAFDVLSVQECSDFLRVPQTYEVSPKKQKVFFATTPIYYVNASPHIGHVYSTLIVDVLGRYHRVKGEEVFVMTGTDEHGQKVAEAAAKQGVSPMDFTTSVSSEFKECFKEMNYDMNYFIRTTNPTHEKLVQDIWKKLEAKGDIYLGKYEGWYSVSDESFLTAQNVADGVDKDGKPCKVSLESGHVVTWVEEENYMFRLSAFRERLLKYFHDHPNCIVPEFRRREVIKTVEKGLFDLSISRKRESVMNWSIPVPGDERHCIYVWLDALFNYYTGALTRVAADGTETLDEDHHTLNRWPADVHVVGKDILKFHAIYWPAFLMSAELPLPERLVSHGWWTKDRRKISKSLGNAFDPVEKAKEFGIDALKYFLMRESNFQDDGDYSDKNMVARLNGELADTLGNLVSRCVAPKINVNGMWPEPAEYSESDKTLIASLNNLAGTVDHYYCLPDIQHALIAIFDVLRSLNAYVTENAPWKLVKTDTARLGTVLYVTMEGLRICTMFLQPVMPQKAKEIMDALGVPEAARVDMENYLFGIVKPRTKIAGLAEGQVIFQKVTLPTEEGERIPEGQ

Measurements from “University of Dundee, Small-Polar-MMV Screening Library” (2021), ChEMBL document CHEMBL3988442.

A: 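Primary screen of methionyl-tRNA synthetase; the read-out is not stated. Target: Methionyl-tRNA synthetase (putative), Leishmania donovani (UniProt E9BF75). The test concentration is not given. Values are per cent inhibition. Size under these conditions: about 68,000 compounds, about 24 of them at 50% or above in at least one test.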
B: 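Assay on Mycobacterium tuberculosis, filed only as a heat shock assay from Cornell; the read-out is not stated. The concentration is filed as 10 mM, unlikely as a test dose, so the dose is not known. Higher reads as stronger inhibition (inferred: compounds with an IC50 in retests scored well above the rest). About 69,000 compounds were tested under these conditions; 1.4% (about 930) showed 50% or more at least once.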

All values are in %. The record does not define 0% and 100%; most values in the screen are far below 50% and negative numbers occur (in some assays of this library far below -100). The compounds are a random part of those screened. A dash means the value is not listed here; it may have been measured.

| # | SMILES | A | B |
|---|---|---|---|
| 1 | `C[C@@H]1C[C@H]2CN(S(=O)(=O)c3ccc(F)cc3)C[C@H]2O1` | 14.01 | - |
| 2 | `[H][C@@]12CCC(=O)N(CCc3ccccc3)[C@]1([H])CCN(S(=O)(=O)CC)C2` | - | -6.233 |
| 3 | `CC(=O)N1C[C@@H](c2ccsc2)[C@@H]2CN(Cc3ccccc3C)CC[C@@H]21` | 3.641 | - |
| 4 | `CC(NCCCN1CCCC1=O)c1cc(Br)ccc1O` (stereo not drawn) | 13.16 | 4.895 |
| 5 | `COc1ccc(CN(C)[C@@H]2CN(C(=O)c3cccs3)C[C@H]2O)cc1` | 20.21 | 8.131 |
| 6 | `COCC(=O)NC(c1ccc(Cl)cc1)c1noc(C)n1` (stereo not drawn) | 10.87 | 4.747 |
| 7 | `Cc1ccc(CNC(=O)NCc2csc(C)n2)cn1` | 9.859 | 23.78 |
| 8 | `CCN(CC)CCn1cc(NC2CCN(C(C)(C)C)CC2)cn1` | 9.399 | -21.4 |
| 9 | `O=C(c1ccc(-c2cccc3c2CCNC3)o1)N1CCCCC1` | 7.673 | 37.05 |
| 10 | `O=C(Cc1ccc2c(c1)OCCO2)NC1CCCCC1` | 18.67 | -3.055 |
| 11 | `CCn1cc(C2=CCN(CCCOc3ccccc3)CC2)cn1` | 8.865 | 28.97 |
| 12 | `CCOc1cccc(C(=O)N2C[C@H]3CC[C@@H]2CN(C(=O)C2CCC2)C3)c1` | 5.351 | - |
| 13 | `Cc1noc(C)c1NC(=O)CCn1cc(Br)ccc1=O` | 15.86 | 1.672 |
| 14 | `O=C(Cc1ccccn1)N1CCN2C[C@H](OCCN3CCCC3)C[C@H]2C1` | 9.95 | - |
| 15 | `O=C(NCCc1ccn(-c2ccccc2)n1)N1CCCC(O)C1` (stereo not drawn) | 27.07 | -8.54 |
| 16 | `CC(=O)Nc1ccc(CNC(=O)CNCc2sc(C)nc2C)cc1` | -2.719 | -145.4 |
| 17 | `Cc1cccc(CNCc2c(C)nn(C)c2N2CCOCC2)n1` | 12.32 | 14.78 |
| 18 | `COc1cc(CCC(C)O)c(OC)c2c1OCO2` (stereo not drawn) | 6.224 | -5.919 |
| 19 | `O[C@H]1CN(Cc2cccc(C(F)(F)F)c2)CC[C@@]12CCCO2` | 7.717 | -14.86 |
| 20 | `c1ccc(CN2CCN(c3ccc4nncn4n3)CC2)nc1` | 18.75 | 6.511 |
| 21 | `Cc1cc(CN2CCCC2)cc(Oc2nc(C)cnc2C)c1` | 21.88 | -40.71 |
| 22 | `CCn1cc(N)c(C(=O)NCc2cnn(C)c2)n1` | 10.24 | -30.66 |
| 23 | `NC(=O)N1CCC2(CC1)CN(c1ccsc1)C(=O)CO2` | 3.136 | -9.086 |
| 24 | `Cc1cc(C)n(C2CCN(c3ncnc4c3CCNCC4)C2)n1` (stereo not drawn) | 12.33 | -9.305 |
| 25 | `COc1ccc(-c2cc(C3(O)CCN(C)CC3)on2)cc1` | 3.118 | -21.19 |
| 26 | `CC(C)[C@H]1CN(c2ccncc2)C[C@@H]1NC(=O)C1(C#N)CCOCC1` | 11.71 | 14.07 |
| 27 | `CS(=O)(=O)N1CCC(C(=O)N2CCOc3ccccc32)CC1` | 8.591 | -8.98 |
| 28 | `O=C(c1cscn1)N1CCn2cnc(COCC3CC3)c2C1` | 12.77 | 11.73 |
| 29 | `Cc1cc(NC(=O)CN2C(=O)CC(C)(C)c3ccccc32)no1` | 19.89 | 6.008 |
| 30 | `COc1ccnc(N2CCN(C(=O)CCc3cnn(C)c3)CC2)n1` | 10.05 | 9.278 |
| 31 | `COc1ccc(C(=O)Nc2ccccc2C(C)C)c(OC)n1` | 3.611 | 26.74 |
| 32 | `CCOCC1CC2(CCN(C(=O)c3ccccn3)CC2)CO1.O=C(O)C(F)(F)F` (stereo not drawn) | - | 1.174 |
| 33 | `COc1ccccc1CC(=O)N1CCCC(n2nc(C)cc2C)C1` (stereo not drawn) | 7.042 | -3.028 |
| 34 | `Cc1cc(NC(=O)c2nn(C3CCS(=O)(=O)C3)c3c2CCCC3)no1` (stereo not drawn) | 8.499 | 9.502 |
| 35 | `COCCOC[C@]1(CNCc2ccc(OC)cc2)C[C@@H](O)[C@@H](O)C1` | 2.747 | - |
| 36 | `Cc1ccc(CN2CCCC3(CCN(Cc4ccoc4)CC3)C2)cc1` | -2.19 | - |
| 37 | `CCc1nc2n(n1)CC(NCC(=O)Nc1cc(C(C)(C)C)no1)CC2` (stereo not drawn) | 15.64 | -7.729 |
| 38 | `O=C(NCCN1CCC(c2cccs2)CC1)Nc1cccs1` | 18.23 | 20.96 |
| 39 | `NC(=O)CCSc1ccccc1NCc1ccc(Cl)s1` | 22.75 | -10.7 |
| 40 | `Cc1nc(O)cc(CCNC(=O)C2CC(=O)N(CC(C)C)C2)n1` (stereo not drawn) | 6.774 | 4.894 |
| 41 | `Cc1ccc(CN2C[C@@H](C(=O)Nc3cccnc3)C[C@H]3OCC[C@H]32)o1` | -1.961 | - |
| 42 | `CNC(=O)c1ccc(OC)c(NCc2noc(-c3ccsc3)n2)c1` | 8.361 | -0.5398 |
| 43 | `Cc1cnn(-c2cccc(N3CCCC3)n2)c1` | 20.7 | 18.75 |
| 44 | `O=C(O)C(F)(F)F.O=C(O)C(F)(F)F.[H][C@@]12CCCO[C@]1([H])[C@H](N(C)C)CN(Cc1ccco1)C2` | - | 8.815 |
| 45 | `CCN(Cc1cnn(C)c1)S(=O)(=O)c1ccc(NC(=O)C(C)(C)C)cc1` | 12.06 | -7.259 |
| 46 | `CC(C)C(CNC(=O)CCn1cncn1)N1CCc2ccccc2C1` (stereo not drawn) | -1.412 | 6.097 |
| 47 | `Cc1nc(CN2CCCC2c2[nH]ncc2C(=O)N(C)C)cs1` (stereo not drawn) | 17.92 | -14.68 |
| 48 | `Cc1ccc2c(c1)C(=O)NCC1(CCN(C(=O)c3cc(C)no3)CC1)O2` | 11 | -10.46 |
| 49 | `Cc1cc(C)n(-c2ccc(C(=O)N3CCCC3c3cnn(C)c3)cc2)n1` (stereo not drawn) | 6.767 | -12.11 |
| 50 | `Cc1cnc(CNC(=O)N(Cc2ccccc2)CC(C)(C)O)s1` | 20.92 | 0.8612 |
| 51 | `COCCn1ccc2cc(NC(C)=O)ccc21` | 14.79 | 4.472 |
| 52 | `CC1CCCCN1Cc1nc(Cc2ccccc2)no1` (stereo not drawn) | 13.13 | -2.936 |
| 53 | `CCc1ncc2c(n1)CN(Cc1cc(C)on1)CC2` | 15.57 | 5.979 |
| 54 | `CC(C(=O)N1CCCN(c2ccc(C#N)cc2)CC1)n1ccnc1` (stereo not drawn) | 16.33 | -3.16 |
| 55 | `CCn1ncc2c1C(COC)CN(Cc1ccc(C)o1)C2` (stereo not drawn) | 10.15 | -19.98 |
| 56 | `CN1C(=O)CCCC12CCCN(Cc1cccs1)C2` (stereo not drawn) | 8.964 | - |
| 57 | `COc1cc(-c2ccc(F)c3c2OC(CN)C3)cc(OC)c1OC` (stereo not drawn) | 11.91 | -5.435 |
| 58 | `O=C(O)C(F)(F)F.O=C(O)C(F)(F)F.[H][C@@]12C[C@H](C(=O)NCC3CC3)N(C)[C@]1([H])CN(Cc1ccsc1)C2` | - | -15.61 |
| 59 | `O=C(O)C(F)(F)F.O=C(O)C(F)(F)F.O=C(O)C(F)(F)F.[H][C@@]12CO[C@@H](CN3CCN(C)CC3)[C@]1([H])CCN(CCc1ccccc1)C2` | - | 34.35 |
| 60 | `CN(CCCc1cc(-c2cccc(F)c2)n[nH]1)C(=O)CCn1cncn1` | 12.24 | -7.191 |
| 61 | `COc1ccnc(CNc2nc(C)nc3ccsc23)c1` | 11.78 | -188.5 |
| 62 | `COc1cccc(CN2CC(=O)N(c3ccccc3C)CC2C)c1OC` (stereo not drawn) | 6.723 | 29.6 |
| 63 | `Cc1ccc(S(=O)(=O)Cc2nsc(N(C)C)n2)c(C)c1` | 16.72 | -6.455 |

4 of the entries, repeated:

- CC(NCCCN1CCCC1=O)c1cc(Br)ccc1O (stereo not drawn) | A: 13.16%; B: 4.895%
- Cc1cnc(CNC(=O)N(Cc2ccccc2)CC(C)(C)O)s1 | A: 20.92%; B: 0.8612%
- CCn1cc(N)c(C(=O)NCc2cnn(C)c2)n1 | A: 10.24%; B: -30.66%
- Cc1cc(C)n(-c2ccc(C(=O)N3CCCC3c3cnn(C)c3)cc2)n1 (stereo not drawn) | A: 6.767%; B: -12.11%